# Reference: the supplement of paper PMC12823440, “Inhibitors supercharge kinase turnover through native proteolytic circuits” (Nature, 2025)
# By UniProt entry, the sequences of proteins in these tests, tags left out. Where a name states a change or a piece, a line headed by the entry shows the natural chain unless it says otherwise.
# UniProt P07949, whole entry, looked up: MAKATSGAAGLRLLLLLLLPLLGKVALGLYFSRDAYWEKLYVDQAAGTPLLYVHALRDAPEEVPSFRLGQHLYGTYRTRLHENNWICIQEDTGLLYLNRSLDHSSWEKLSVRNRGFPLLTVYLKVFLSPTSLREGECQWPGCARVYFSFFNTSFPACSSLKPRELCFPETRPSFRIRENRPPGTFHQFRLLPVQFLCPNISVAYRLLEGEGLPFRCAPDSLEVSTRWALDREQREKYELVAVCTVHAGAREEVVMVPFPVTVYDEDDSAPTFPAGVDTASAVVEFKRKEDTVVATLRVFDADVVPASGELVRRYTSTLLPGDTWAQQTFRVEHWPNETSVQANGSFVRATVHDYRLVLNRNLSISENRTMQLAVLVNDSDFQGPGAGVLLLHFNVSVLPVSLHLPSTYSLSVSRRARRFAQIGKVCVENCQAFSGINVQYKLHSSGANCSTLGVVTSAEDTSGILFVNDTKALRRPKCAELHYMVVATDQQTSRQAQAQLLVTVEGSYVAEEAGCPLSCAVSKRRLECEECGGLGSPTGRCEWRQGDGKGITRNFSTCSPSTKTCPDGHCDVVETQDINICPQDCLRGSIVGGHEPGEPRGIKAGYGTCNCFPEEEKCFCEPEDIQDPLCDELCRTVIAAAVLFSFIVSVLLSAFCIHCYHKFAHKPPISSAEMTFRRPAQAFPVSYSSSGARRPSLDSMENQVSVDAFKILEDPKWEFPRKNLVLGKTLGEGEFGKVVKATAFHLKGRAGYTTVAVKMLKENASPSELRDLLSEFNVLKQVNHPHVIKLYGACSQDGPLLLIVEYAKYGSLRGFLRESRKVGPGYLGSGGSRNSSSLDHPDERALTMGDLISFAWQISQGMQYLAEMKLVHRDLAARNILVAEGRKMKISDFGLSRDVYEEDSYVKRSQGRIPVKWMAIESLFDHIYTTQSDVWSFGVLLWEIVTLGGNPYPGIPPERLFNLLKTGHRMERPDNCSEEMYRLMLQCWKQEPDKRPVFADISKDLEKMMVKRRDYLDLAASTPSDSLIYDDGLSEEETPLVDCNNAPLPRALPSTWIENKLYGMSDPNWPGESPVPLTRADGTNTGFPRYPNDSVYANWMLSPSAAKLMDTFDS
# UniProt P07949, whole entry M918T, looked up: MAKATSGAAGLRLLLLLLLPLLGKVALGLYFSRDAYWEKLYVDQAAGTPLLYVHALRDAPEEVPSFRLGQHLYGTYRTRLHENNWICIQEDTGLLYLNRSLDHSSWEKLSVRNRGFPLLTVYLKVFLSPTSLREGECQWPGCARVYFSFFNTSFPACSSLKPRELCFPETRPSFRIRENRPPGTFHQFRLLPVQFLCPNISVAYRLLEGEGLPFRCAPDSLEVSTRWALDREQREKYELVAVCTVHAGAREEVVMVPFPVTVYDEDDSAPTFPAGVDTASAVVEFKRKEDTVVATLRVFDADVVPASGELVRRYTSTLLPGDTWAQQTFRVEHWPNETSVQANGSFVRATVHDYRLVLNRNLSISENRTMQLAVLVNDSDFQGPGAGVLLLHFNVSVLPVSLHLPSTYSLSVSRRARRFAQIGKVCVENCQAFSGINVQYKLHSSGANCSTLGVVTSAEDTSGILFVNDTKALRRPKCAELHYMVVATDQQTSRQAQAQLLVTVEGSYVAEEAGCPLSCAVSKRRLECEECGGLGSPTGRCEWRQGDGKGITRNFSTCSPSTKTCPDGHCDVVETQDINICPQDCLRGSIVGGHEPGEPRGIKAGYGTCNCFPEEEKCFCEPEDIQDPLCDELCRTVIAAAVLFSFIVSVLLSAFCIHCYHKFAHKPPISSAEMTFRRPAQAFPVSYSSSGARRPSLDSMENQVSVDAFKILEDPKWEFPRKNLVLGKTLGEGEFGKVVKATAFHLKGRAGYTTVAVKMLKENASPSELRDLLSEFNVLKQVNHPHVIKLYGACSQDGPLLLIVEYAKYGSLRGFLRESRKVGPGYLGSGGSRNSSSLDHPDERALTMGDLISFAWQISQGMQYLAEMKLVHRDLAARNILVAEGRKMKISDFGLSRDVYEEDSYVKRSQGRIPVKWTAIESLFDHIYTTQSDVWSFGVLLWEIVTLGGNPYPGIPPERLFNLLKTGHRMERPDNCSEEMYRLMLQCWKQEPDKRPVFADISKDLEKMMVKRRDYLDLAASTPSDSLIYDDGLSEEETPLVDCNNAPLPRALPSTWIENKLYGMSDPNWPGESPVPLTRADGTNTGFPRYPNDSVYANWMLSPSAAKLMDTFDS
# UniProt Q15418, whole entry: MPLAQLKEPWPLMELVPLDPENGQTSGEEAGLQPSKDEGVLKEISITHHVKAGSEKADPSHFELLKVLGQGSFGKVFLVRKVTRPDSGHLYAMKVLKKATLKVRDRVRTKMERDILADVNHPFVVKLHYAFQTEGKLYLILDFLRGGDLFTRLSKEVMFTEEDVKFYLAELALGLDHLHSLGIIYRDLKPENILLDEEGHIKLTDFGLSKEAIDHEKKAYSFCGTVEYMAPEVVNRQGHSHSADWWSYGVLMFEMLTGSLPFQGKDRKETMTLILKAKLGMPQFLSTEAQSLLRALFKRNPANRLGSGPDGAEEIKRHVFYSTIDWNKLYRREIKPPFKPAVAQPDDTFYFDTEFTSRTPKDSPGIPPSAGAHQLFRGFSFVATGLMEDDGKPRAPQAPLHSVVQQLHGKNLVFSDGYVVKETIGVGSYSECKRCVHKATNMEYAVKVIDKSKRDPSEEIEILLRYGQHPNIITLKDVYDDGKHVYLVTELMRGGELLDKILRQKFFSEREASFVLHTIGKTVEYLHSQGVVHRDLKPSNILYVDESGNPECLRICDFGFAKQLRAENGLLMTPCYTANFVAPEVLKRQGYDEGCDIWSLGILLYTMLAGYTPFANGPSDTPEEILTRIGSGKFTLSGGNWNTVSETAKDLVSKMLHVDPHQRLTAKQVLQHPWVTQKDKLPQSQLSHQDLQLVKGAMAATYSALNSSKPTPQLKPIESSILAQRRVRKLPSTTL
# UniProt Q9NYA1, whole entry: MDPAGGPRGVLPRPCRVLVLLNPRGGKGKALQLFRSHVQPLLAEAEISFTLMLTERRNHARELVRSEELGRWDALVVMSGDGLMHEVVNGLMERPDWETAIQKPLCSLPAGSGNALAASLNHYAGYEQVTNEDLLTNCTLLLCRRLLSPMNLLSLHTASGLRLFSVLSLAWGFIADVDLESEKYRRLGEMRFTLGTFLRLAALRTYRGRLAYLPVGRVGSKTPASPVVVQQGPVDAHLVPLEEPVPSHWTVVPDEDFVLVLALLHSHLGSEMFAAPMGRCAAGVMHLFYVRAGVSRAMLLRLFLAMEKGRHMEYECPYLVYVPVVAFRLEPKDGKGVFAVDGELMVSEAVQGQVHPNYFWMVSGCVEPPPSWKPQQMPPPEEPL
# UniProt Q9Y6E0: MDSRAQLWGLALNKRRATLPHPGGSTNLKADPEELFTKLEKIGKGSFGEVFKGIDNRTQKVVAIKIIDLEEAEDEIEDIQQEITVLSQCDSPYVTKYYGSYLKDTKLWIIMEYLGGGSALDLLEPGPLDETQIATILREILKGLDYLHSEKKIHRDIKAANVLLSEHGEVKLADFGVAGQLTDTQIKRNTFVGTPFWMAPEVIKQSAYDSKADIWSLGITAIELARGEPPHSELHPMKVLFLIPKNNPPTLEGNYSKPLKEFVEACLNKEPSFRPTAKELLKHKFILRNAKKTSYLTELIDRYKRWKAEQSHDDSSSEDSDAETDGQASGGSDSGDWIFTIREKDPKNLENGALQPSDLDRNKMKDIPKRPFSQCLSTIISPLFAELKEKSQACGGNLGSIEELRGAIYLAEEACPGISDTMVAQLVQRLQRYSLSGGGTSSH
# UniProt Q15208: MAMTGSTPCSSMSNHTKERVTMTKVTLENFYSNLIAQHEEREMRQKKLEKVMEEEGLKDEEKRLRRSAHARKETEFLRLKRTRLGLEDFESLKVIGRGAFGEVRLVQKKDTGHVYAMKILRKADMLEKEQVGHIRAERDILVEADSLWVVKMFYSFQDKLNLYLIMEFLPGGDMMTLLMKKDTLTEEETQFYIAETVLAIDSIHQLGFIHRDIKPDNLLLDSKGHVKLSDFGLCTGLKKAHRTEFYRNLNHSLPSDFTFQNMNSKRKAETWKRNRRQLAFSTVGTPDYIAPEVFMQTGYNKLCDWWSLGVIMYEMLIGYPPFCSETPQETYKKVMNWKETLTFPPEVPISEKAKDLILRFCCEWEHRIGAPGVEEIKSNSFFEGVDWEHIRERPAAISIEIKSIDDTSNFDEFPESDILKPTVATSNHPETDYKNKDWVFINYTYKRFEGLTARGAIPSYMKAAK
# UniProt Q6PHR2: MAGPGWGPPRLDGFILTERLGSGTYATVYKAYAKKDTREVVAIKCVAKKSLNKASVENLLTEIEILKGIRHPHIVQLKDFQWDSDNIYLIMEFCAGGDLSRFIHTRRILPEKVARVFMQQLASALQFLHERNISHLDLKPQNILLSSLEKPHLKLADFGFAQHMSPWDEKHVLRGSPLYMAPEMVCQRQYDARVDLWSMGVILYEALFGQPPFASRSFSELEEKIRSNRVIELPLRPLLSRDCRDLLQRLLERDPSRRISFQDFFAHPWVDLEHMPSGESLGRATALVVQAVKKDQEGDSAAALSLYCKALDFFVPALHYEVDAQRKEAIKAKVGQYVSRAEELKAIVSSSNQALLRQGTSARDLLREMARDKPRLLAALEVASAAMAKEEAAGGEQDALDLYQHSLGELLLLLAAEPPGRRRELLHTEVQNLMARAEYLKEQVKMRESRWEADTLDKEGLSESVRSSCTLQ
# UniProt P07947, whole entry, looked up: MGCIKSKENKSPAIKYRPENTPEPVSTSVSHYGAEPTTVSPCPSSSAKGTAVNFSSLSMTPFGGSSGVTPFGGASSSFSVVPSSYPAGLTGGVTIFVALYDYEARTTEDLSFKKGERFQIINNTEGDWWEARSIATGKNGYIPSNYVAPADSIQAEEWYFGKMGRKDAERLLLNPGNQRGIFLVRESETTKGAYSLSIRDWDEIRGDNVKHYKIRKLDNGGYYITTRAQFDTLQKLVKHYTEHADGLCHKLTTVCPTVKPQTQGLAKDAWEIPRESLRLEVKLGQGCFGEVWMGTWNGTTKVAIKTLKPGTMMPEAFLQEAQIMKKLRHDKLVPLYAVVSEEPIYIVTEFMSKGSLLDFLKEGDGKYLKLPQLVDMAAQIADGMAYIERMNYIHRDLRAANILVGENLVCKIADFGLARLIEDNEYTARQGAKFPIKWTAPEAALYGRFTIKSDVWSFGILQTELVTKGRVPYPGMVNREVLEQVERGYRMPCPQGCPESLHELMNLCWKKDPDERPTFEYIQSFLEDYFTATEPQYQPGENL
# UniProt P43403: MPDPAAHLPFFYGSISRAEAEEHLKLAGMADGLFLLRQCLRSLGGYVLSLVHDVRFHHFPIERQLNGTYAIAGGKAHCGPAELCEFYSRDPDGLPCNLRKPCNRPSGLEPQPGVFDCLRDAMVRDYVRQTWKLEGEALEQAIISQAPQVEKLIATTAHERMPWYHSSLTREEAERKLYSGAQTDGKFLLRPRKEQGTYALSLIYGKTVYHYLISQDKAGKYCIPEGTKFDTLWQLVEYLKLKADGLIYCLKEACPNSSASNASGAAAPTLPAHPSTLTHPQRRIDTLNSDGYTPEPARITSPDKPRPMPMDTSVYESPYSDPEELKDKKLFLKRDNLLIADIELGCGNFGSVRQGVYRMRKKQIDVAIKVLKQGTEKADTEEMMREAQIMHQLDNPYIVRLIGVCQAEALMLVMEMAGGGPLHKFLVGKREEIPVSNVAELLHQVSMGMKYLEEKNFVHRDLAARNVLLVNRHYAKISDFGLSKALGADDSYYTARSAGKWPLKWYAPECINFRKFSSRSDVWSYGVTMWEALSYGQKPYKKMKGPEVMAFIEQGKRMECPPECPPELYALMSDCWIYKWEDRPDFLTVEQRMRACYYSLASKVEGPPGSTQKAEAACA
# UniProt P11802: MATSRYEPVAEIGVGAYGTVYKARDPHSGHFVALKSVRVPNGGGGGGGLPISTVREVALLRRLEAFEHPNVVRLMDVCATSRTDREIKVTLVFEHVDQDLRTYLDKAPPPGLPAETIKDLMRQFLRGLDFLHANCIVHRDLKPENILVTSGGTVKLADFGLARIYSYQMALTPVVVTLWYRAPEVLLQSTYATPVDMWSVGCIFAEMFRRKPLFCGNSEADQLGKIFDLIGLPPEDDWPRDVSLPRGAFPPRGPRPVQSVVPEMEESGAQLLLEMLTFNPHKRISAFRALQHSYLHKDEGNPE
# UniProt P50613: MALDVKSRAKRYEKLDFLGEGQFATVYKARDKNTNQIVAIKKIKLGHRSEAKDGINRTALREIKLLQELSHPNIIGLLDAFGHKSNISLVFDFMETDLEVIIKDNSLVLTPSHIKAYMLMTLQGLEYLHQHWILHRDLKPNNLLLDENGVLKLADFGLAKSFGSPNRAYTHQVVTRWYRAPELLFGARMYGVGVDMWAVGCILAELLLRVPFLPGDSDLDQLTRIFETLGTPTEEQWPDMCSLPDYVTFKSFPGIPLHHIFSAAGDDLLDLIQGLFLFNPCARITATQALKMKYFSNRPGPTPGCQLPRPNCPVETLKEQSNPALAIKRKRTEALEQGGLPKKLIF
# This is one part of the list. The calls rarely recur for the same compound in another form.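 Kinases were expressed as nanoluciferase fusions in K562 cells and luminescence was read every 4 h between 2 and 18 h as percent of control, DMSO set to 100% and a positive control to 0%. A time point counts as decreased when the signal drops significantly (2 sigma). The hit call is the authors' own, does not follow from the count of time points alone, and its rule is not shown.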
# What was measured:
# Settings in all cases: K562, 2-18 h
# [1] = target: RET (UniProt P07949); experiment: kinase-Nluc reporter destabilization hit call (1 = scored as downregulated) (binary); higher = compound decreases kinase abundance
# [2] = target: RET_M918T (clone: RET_mut) (UniProt P07949); experiment: as above
# [3] = target: RIOK1 (UniProt Q9BRS2); experiment: as above
# [4] = target: RIPK1 (UniProt Q13546); experiment: as above
# [5] = target: RIPK2 (UniProt O43353); experiment: as above
# [6] = target: ROR2 (UniProt Q01974); experiment: as above
# [7] = target: RPS6KA1 (UniProt Q15418); experiment: as above
# [8] = target: SPHK1 (UniProt Q9NYA1); experiment: as above
# [9] = target: SRC (UniProt P12931); experiment: as above
# [10] = target: STK24 (UniProt Q9Y6E0); experiment: as above
# [11] = target: STK38 (UniProt Q15208); experiment: as above
# [12] = target: SYK (UniProt P43405); experiment: as above
# [13] = target: TEC (UniProt P42680); experiment: as above
# [14] = target: TYK2 (UniProt P29597); experiment: as above
# [15] = target: ULK3 (UniProt Q6PHR2); experiment: as above
# [16] = target: YES1 (UniProt P07947); experiment: as above
# [17] = target: ZAK (UniProt Q9NYL2); experiment: as above
# [18] = target: ZAP70 (UniProt P43403); experiment: as above
# [19] = target: CDK4 (UniProt P11802); experiment: number of time points (of 4; 2 h point missing) at which kinase-Nluc abundance scored as decreased, DMSO-normalised (count); higher = more persistent destabilization
# [20] = target: CDK7 (UniProt P50613); experiment: as above
compound,measurement,setting,value
CCCCCCCCCCCCc1ccc(S(=O)(=O)Nc2nncs2)cc1,kinase-Nluc reporter destabilization hit call,[1]; 10 µM,inactive: 0
same,kinase-Nluc reporter destabilization hit call,[2]; 10 µM,inactive: 0
same,kinase-Nluc reporter destabilization hit call,[3]; 10 µM,inactive: 0
same,kinase-Nluc reporter destabilization hit call,[4]; 10 µM,inactive: 0
same,kinase-Nluc reporter destabilization hit call,[5]; 10 µM,inactive: 0
same,kinase-Nluc reporter destabilization hit call,[6]; 10 µM,inactive: 0
same,kinase-Nluc reporter destabilization hit call,[7]; 10 µM,inactive: 0
same,kinase-Nluc reporter destabilization hit call,[8]; 10 µM,inactive: 0
same,kinase-Nluc reporter destabilization hit call,[9]; 10 µM,inactive: 0
same,kinase-Nluc reporter destabilization hit call,[10]; 10 µM,inactive: 0
same,kinase-Nluc reporter destabilization hit call,[11]; 10 µM,inactive: 0
same,kinase-Nluc reporter destabilization hit call,[12]; 10 µM,inactive: 0
same,kinase-Nluc reporter destabilization hit call,[13]; 10 µM,inactive: 0
same,kinase-Nluc reporter destabilization hit call,[14]; 10 µM,inactive: 0
same,kinase-Nluc reporter destabilization hit call,[15]; 10 µM,inactive: 0
same,kinase-Nluc reporter destabilization hit call,[16]; 10 µM,inactive: 0
same,kinase-Nluc reporter destabilization hit call,[17]; 10 µM,inactive: 0
same,kinase-Nluc reporter destabilization hit call,[18]; 10 µM,inactive: 0
same,number of time points,[19]; 10 µM,0
same,number of time points,[20]; 10 µM,0
Nc1ncccc1-c1nc2ccc(-c3ccccc3)nc2n1-c1ccc(C2(N)CCC2)cc1 [Miransertib],kinase-Nluc reporter destabilization hit call,[1]; 10 µM,inactive: 0
same,kinase-Nluc reporter destabilization hit call,[2]; 10 µM,inactive: 0
same,kinase-Nluc reporter destabilization hit call,[3]; 10 µM,inactive: 0
same,kinase-Nluc reporter destabilization hit call,[4]; 10 µM,inactive: 0
same,kinase-Nluc reporter destabilization hit call,[5]; 10 µM,inactive: 0
same,kinase-Nluc reporter destabilization hit call,[6]; 10 µM,inactive: 0
same,kinase-Nluc reporter destabilization hit call,[7]; 10 µM,inactive: 0
same,kinase-Nluc reporter destabilization hit call,[8]; 10 µM,inactive: 0
same,kinase-Nluc reporter destabilization hit call,[9]; 10 µM,inactive: 0
same,kinase-Nluc reporter destabilization hit call,[10]; 10 µM,inactive: 0
same,kinase-Nluc reporter destabilization hit call,[11]; 10 µM,inactive: 0
same,kinase-Nluc reporter destabilization hit call,[12]; 10 µM,inactive: 0
same,kinase-Nluc reporter destabilization hit call,[13]; 10 µM,inactive: 0
same,kinase-Nluc reporter destabilization hit call,[14]; 10 µM,inactive: 0
same,kinase-Nluc reporter destabilization hit call,[15]; 10 µM,inactive: 0
same,kinase-Nluc reporter destabilization hit call,[16]; 10 µM,inactive: 0
same,kinase-Nluc reporter destabilization hit call,[17]; 10 µM,inactive: 0
same,kinase-Nluc reporter destabilization hit call,[18]; 10 µM,inactive: 0
same,number of time points,[19]; 10 µM,0
same,number of time points,[20]; 10 µM,2
O=C(O)c1ccc(Nc2ncc3c(n2)-c2ccc(Cl)cc2C(c2c(F)cccc2F)=NC3)cc1,kinase-Nluc reporter destabilization hit call,[1]; 10 µM,inactive: 0
same,kinase-Nluc reporter destabilization hit call,[2]; 10 µM,inactive: 0
same,kinase-Nluc reporter destabilization hit call,[3]; 10 µM,inactive: 0
same,kinase-Nluc reporter destabilization hit call,[4]; 10 µM,inactive: 0
same,kinase-Nluc reporter destabilization hit call,[5]; 10 µM,inactive: 0
same,kinase-Nluc reporter destabilization hit call,[6]; 10 µM,inactive: 0
same,kinase-Nluc reporter destabilization hit call,[8]; 10 µM,inactive: 0
same,kinase-Nluc reporter destabilization hit call,[10]; 10 µM,inactive: 0
same,kinase-Nluc reporter destabilization hit call,[11]; 10 µM,inactive: 0
same,kinase-Nluc reporter destabilization hit call,[12]; 10 µM,inactive: 0
same,kinase-Nluc reporter destabilization hit call,[13]; 10 µM,inactive: 0
same,kinase-Nluc reporter destabilization hit call,[14]; 10 µM,inactive: 0
same,kinase-Nluc reporter destabilization hit call,[15]; 10 µM,inactive: 0
same,kinase-Nluc reporter destabilization hit call,[16]; 10 µM,inactive: 0
same,kinase-Nluc reporter destabilization hit call,[17]; 10 µM,inactive: 0
same,kinase-Nluc reporter destabilization hit call,[18]; 10 µM,inactive: 0
same,number of time points,[19]; 10 µM,0
same,number of time points,[20]; 10 µM,0
O=C(c1ccc(/C=C/c2n[nH]c3ccccc23)cc1)N1CCNCC1,kinase-Nluc reporter destabilization hit call,[1]; 2.5 µM,inactive: 0
same,kinase-Nluc reporter destabilization hit call,[2]; 2.5 µM,inactive: 0
same,kinase-Nluc reporter destabilization hit call,[3]; 2.5 µM,inactive: 0
same,kinase-Nluc reporter destabilization hit call,[4]; 2.5 µM,inactive: 0
same,kinase-Nluc reporter destabilization hit call,[5]; 2.5 µM,inactive: 0
same,kinase-Nluc reporter destabilization hit call,[6]; 2.5 µM,inactive: 0
same,kinase-Nluc reporter destabilization hit call,[7]; 2.5 µM,inactive: 0
same,kinase-Nluc reporter destabilization hit call,[8]; 2.5 µM,inactive: 0
same,kinase-Nluc reporter destabilization hit call,[10]; 2.5 µM,inactive: 0
same,kinase-Nluc reporter destabilization hit call,[11]; 2.5 µM,inactive: 0
same,kinase-Nluc reporter destabilization hit call,[12]; 2.5 µM,inactive: 0
same,kinase-Nluc reporter destabilization hit call,[13]; 2.5 µM,inactive: 0
same,kinase-Nluc reporter destabilization hit call,[14]; 2.5 µM,inactive: 0
same,kinase-Nluc reporter destabilization hit call,[15]; 2.5 µM,inactive: 0
same,kinase-Nluc reporter destabilization hit call,[16]; 2.5 µM,inactive: 0
same,kinase-Nluc reporter destabilization hit call,[17]; 2.5 µM,inactive: 0
same,kinase-Nluc reporter destabilization hit call,[18]; 2.5 µM,inactive: 0
same,number of time points,[19]; 2.5 µM,0
same,number of time points,[20]; 2.5 µM,0
CC1(C)C(=O)N([C@H]2CCc3c(O)cccc32)c2nc(Nc3cccc(CN4CCCC4)c3)ncc21,kinase-Nluc reporter destabilization hit call,[1]; 2.5 µM,inactive: 0
same,kinase-Nluc reporter destabilization hit call,[2]; 2.5 µM,inactive: 0
same,kinase-Nluc reporter destabilization hit call,[3]; 2.5 µM,inactive: 0
same,kinase-Nluc reporter destabilization hit call,[4]; 2.5 µM,inactive: 0
same,kinase-Nluc reporter destabilization hit call,[5]; 2.5 µM,inactive: 0
same,kinase-Nluc reporter destabilization hit call,[6]; 2.5 µM,inactive: 0
same,kinase-Nluc reporter destabilization hit call,[7]; 2.5 µM,inactive: 0
same,kinase-Nluc reporter destabilization hit call,[8]; 2.5 µM,inactive: 0
same,kinase-Nluc reporter destabilization hit call,[9]; 2.5 µM,inactive: 0
same,kinase-Nluc reporter destabilization hit call,[10]; 2.5 µM,inactive: 0
same,kinase-Nluc reporter destabilization hit call,[11]; 2.5 µM,inactive: 0
same,kinase-Nluc reporter destabilization hit call,[12]; 2.5 µM,inactive: 0
same,kinase-Nluc reporter destabilization hit call,[13]; 2.5 µM,inactive: 0
same,kinase-Nluc reporter destabilization hit call,[14]; 2.5 µM,inactive: 0
same,kinase-Nluc reporter destabilization hit call,[15]; 2.5 µM,inactive: 0
same,kinase-Nluc reporter destabilization hit call,[16]; 2.5 µM,inactive: 0
same,kinase-Nluc reporter destabilization hit call,[17]; 2.5 µM,inactive: 0
same,kinase-Nluc reporter destabilization hit call,[18]; 2.5 µM,inactive: 0
same,number of time points,[19]; 2.5 µM,0
same,number of time points,[20]; 2.5 µM,1

# In another format: entries from further up
compound | measurement | setting | value
O=C(O)c1ccc(Nc2ncc3c(n2)-c2ccc(Cl)cc2C(c2c(F)cccc2F)=NC3)cc1 | kinase-Nluc reporter destabilization hit call | [11]; 10 µM | inactive: 0
same | kinase-Nluc reporter destabilization hit call | [12]; 10 µM | inactive: 0
same | kinase-Nluc reporter destabilization hit call | [13]; 10 µM | inactive: 0
same | kinase-Nluc reporter destabilization hit call | [14]; 10 µM | inactive: 0

# Reprinted at random: two records from the list.
compound,measurement,setting,value
Nc1ncccc1-c1nc2ccc(-c3ccccc3)nc2n1-c1ccc(C2(N)CCC2)cc1 [Miransertib],kinase-Nluc reporter destabilization hit call,[9]; 10 µM,inactive: 0
same,kinase-Nluc reporter destabilization hit call,[1]; 10 µM,inactive: 0
